Results are given in words; binding and its absence hold for the method and conditions named. In cells and extracts the contact can be indirect. Some results given as binding are weak or reduced against the parent protein; the word gives no strength. Tags and fused reporters may be left off the sequences shown.
T1: MYC-tagged sodium iodide symporter (NIS-MYC) (UniProt Q92911)
T1 sequence: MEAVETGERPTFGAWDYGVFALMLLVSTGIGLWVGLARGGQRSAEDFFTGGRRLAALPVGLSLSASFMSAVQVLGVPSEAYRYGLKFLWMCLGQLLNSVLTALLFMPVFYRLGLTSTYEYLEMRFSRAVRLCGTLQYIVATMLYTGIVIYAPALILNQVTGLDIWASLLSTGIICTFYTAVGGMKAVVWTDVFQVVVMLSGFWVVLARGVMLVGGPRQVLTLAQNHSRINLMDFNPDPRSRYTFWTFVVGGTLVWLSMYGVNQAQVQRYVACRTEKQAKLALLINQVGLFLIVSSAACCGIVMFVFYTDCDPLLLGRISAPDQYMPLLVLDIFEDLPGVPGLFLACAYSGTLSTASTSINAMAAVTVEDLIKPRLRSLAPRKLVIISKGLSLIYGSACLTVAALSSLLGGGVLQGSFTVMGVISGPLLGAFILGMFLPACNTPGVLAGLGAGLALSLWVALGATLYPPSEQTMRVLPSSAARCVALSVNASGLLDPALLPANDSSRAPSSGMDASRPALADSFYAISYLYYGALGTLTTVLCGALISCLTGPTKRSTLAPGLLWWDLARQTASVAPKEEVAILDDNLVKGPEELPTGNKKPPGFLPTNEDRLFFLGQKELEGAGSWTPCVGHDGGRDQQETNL


How the values were obtained:
[1] = molecular target: T1, MYC-tagged sodium iodide symporter (NIS-MYC); assay: co-IP; HeLa cells transfected with PBF-HA and NIS-MYC; IP of NIS-MYC, blot with the pY174 antibody
[2] = molecular target: T1, MYC-tagged sodium iodide symporter (NIS-MYC); assay: proximity ligation; Duolink In Situ Kit; COS-7 cells transfected with NIS-MYC and PBF-HA (or Y174A), pervanadate 100 μM for 15 min before fixation; mouse anti-myc with rabbit anti-HA or rabbit anti-PBF-pY174; also after PP1 (2 μM, 24 h) or vehicle
[3] = molecular target: T1, MYC-tagged sodium iodide symporter (NIS-MYC); assay: co-IP; COS-7 cells transfected with NIS-MYC and VO, PBF-HA or Y174A; IP of NIS-MYC with mouse anti-Myc, blot with mouse anti-HA

Row | binding [1] | binding [2] | binding [3] | Binder
1 | binds | binds |  | PBF phosphorylated at tyrosine 174 (PBF-pY174) (protein, UniProt P53801 33-180, phosphotyrosine at 174) QEPPGAACSQNTNKTCEECLKNVSCLWCNTNKACLDYPVTSVLPPASLCKLSSARWGVCWVNFEALIITMSVVGGTLLLGIAICCCCCCRRKRSRKPDRSEEKAMREREERRIRQEERRAEMKTRHDEIRKKYGLFKEENPYARFENN
2 |  | binds | binds | HA-tagged pituitary tumor-transforming gene-binding factor (PBF-HA), wild type (protein, UniProt P53801 33-180) QEPPGAACSQNTNKTCEECLKNVSCLWCNTNKACLDYPVTSVLPPASLCKLSSARWGVCWVNFEALIITMSVVGGTLLLGIAICCCCCCRRKRSRKPDRSEEKAMREREERRIRQEERRAEMKTRHDEIRKKYGLFKEENPYARFENN

— article PMC4207948
